This passage reports AC50 results from PubChem BioAssay AID445 (National Center for Advancing Translational Sciences (NCATS), 2006).

The structures appear in SMILES notation. The list shows a part of the results. The main result of the screen is listed elsewhere. These columns were measured beside it and carry no call. Most of these compounds were active or inconclusive in the main read-out, so they are no random draw. Words in brackets tell the shape of the fitted curve; partial curves, single points and poor fits give uncertain potencies.

This experiment can be described thus: IkB Signaling. Particulars: ABC-DLBCL IkBa-CBG/CBR dual luciferase ratio (green luciferase fused to IkBa over red control in OCI-Ly3 lymphoma cells), 4 h; measured here: control luc red channel unless noted. The procedure, abridged:
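In this assay, an IκBα–CBG68 fusion accumulates when IKK-driven degradation is blocked; native CBR normalizes for cell number. OCI-Ly3 cells were treated 4 h with compound and doxycycline, then green and red light read after Chroma-Glo addition.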
The term AC50 denotes the midpoint of the concentration-response curve, whichever way the signal moves. Take `COc1cccc(NS(=O)(=O)c2ccc3c(c2)N(C)C(=O)CC(=O)N3C)c1`: the AC50 was 7.94 µM [falling, partial curve].

On to `Nc1ccc(N2CCCCC2)cc1N1CCCCC1`, for which the AC50 was 39.8 µM [falling, single point].

`O=C(Nc1nccs1)C(NS(=O)(=O)c1ccc(Br)s1)c1ccccc1` (configuration not stated): the AC50 was 20 µM [falling, partial curve].

In the case of `O=C(Nc1ccc(Br)cc1F)N1CC=C(c2c[nH]c3ccccc23)CC1`, the AC50 is 10 µM [falling, partial curve].

As for `CC(CCc1ccccc1)NC(=O)CSc1n[nH]c(-c2ccc(F)cc2)n1` (configuration not stated), the AC50 was 15.8 µM [falling, partial curve].

Consider `COc1ccc(CNC(=O)CN2C(=O)CCn3nc(-c4ccccc4)cc32)c(OC)c1`, for which the AC50 was 20 µM [falling, single point].

As for `COc1ccc(N2C(=O)Cc3cc(OC)c(OC)cc3C2c2ccc(F)cc2)cc1` (configuration not stated), the AC50 was 31.6 µM [falling, single point].

On to `COc1ccc(-c2nn3c(=O)cc(CN4CCN(S(=O)(=O)c5ccc(C)cc5)CC4)nc3s2)cc1`, for which the AC50 is 20 µM [falling, single point].

On to `Cc1cc(OCC(O)CN2CCN(c3cccc(Cl)c3)CC2)ccc1Cl` (configuration not stated), for which the AC50 is 15.8 µM [falling, partial curve].

Take `COc1ccc(C(=O)Nc2ccc(S(=O)(=O)N(Cc3ccccc3)c3ccccc3)cc2)cc1`: the AC50 was 0.631 µM [falling, full curve, poor fit].

Turning to `CCOC(=O)c1cc(-c2ccc(F)cc2)n(CCC(=O)Nc2nc3ccc(OC)cc3s2)c1C`, the AC50 was 39.8 µM [falling, single point].

Turning to `COc1ccc(S(=O)(=O)N(CC(=O)Nc2cc(Cl)ccc2C)Cc2ccccc2)cc1OC`, the AC50 is 10 µM [falling, partial curve].

In the case of `CCn1nc(C)c2c(-c3ccccc3)cc(=O)n(C(C)C(=O)NCCc3ccc(OC)c(OC)c3)c21` (configuration not stated), the AC50 is 12.6 µM [falling, partial curve].

In the case of `O=C(OCC(=O)N1CCCCC1)c1cc2ccccc2cc1O`, the AC50 was 12.6 µM [falling, partial curve].

For the compound `COc1ccc(NCc2cc3cc4c(cc3n(CC(=O)Nc3ccc(C)c(C)c3)c2=O)OCO4)cc1`, the AC50 was 5.01 µM [falling, full curve, poor fit].

Take `CC(C)(C)OC(=O)N1CCC(c2c(C(=O)N3CCCCC3)cnn2-c2ccccc2Cl)CC1`: the AC50 was 15.8 µM [falling, partial curve].

Consider `Cc1ccccc1-c1nc(CN2CCC(C(=O)N3CCN(c4ccccn4)CC3)CC2)c(C)o1`, for which the AC50 is 10 µM [falling, partial curve].

With `COc1ccccc1OCc1nc(C#N)c(NCc2ccc(C)cc2)o1`, the AC50 is 20 µM [falling, partial curve].

On to `C=CC(C)Sc1nc2c(c(=O)n(C)c(=O)n2C)n1Cc1ccccc1Cl` (configuration not stated), for which the AC50 was 15.8 µM [falling, partial curve].

`O=C(Nc1nccs1)c1ccc(CSc2nnnn2-c2ccccc2)cc1`: the concentration at half-maximal activity (AC50) was 5.01 µM [falling, full curve].

Regarding `COc1ccc(-c2nn(-c3ccccc3)cc2C2NC(=O)NC(C)=C2C(=O)OC(C)C)cc1Cl` (configuration not stated), the AC50 was 25.1 µM [falling, single point].

Take `COc1ccc(NC(=O)N(Cc2cc3cc(OC)ccc3[nH]c2=O)CC2CCCO2)cc1` (configuration not stated): the AC50 is 10 µM [falling, partial curve].

Regarding `CN(Cc1ccccc1)c1ncnc2c1nnn2C`, the AC50 was 3.98 µM [rising, partial curve].

On to `COc1ccc(-c2nnc(SCC(=O)N(C)C3CCCCC3)o2)cc1OC`, for which the AC50 was 10 µM [falling, partial curve].

On to `COC(=O)c1sccc1S(=O)(=O)N(CC(=O)Nc1ccccc1F)c1ccccc1`, for which the AC50 is 15.8 µM [falling, partial curve].

For the compound `Cc1cccc(C(=O)n2nc(-c3cccnc3)nc2NCc2ccccc2)c1`, the AC50 is 25.1 µM [falling, partial curve].

Regarding `Cc1ccc(C(=O)NCCc2ccc(S(N)(=O)=O)cc2)cc1-n1cnc2cccnc21`, the AC50 is 5.01 µM [falling, partial curve].

For the compound `Cc1ccc(NC(=O)Nc2ccccc2OCc2cc(=O)n3ccccc3n2)c(Cl)c1`, the AC50 is 39.8 µM [rising, single point].

Turning to `COC(=O)c1c(NC(=O)Cc2coc3ccc(C(C)C)cc23)sc2c1CCC2`, the AC50 was 2 µM [falling, full curve].

With `Cc1ccc(N=C2NC(=O)CC(C(=O)Nc3cc(C(F)(F)F)ccc3Cl)S2)cc1` (configuration not stated), the AC50 was 12.6 µM [falling, partial curve].

For the compound `O=S(=O)(c1ccc(Cl)cc1)c1nnn2c1nc(NCc1ccc3c(c1)OCO3)c1sccc12`, the AC50 is 20 µM [falling, partial curve, poor fit].

As to `COc1cc(Nc2cc(C)nc3ncnn23)cc(OC)c1`, the AC50 was 15.8 µM [rising, partial curve] [measured here: IkB-luc green channel].

Take `Cc1ccc(N(CC(=O)Nc2cc(C)ccc2C)S(=O)(=O)c2c(C)noc2C)cc1`: the AC50 is 15.8 µM [falling, partial curve].

On to `COc1cc(Cl)c(NS(=O)(=O)c2cc(-c3cc(C)no3)ccc2OC)c(OC)c1`, for which the AC50 was 2.51 µM [rising, partial curve, poor fit].

With `CC1CC(N(C(=O)c2ccco2)c2ccccc2)c2ccccc2N1` (configuration not stated), the AC50 was 20 µM [falling, partial curve].

As for `CCOc1ccccc1NC(=O)C1CCN(S(=O)(=O)c2ccc3c(c2)CCCN3C(C)=O)CC1`, the AC50 was 15.8 µM [falling, partial curve].

For the compound `CCS(=O)(=O)c1ncc(Cl)c(C(=O)Nc2ccccc2)n1`, the AC50 was 7.94 µM [falling, full curve].

In the case of `CCC(=O)N1CCc2cc(CNC(=O)c3ccc(OC)cc3)ccc21`, the AC50 was 2.51 µM [rising, full curve].

As to `CCn1nc(-c2ccccc2)c(-c2ccccc2)c(C(=O)Nc2nc(C)c(C(C)=O)s2)c1=O`, the AC50 was 20 µM [falling, partial curve].

Turning to `Cc1ccc(NC(=O)CSc2nc(=O)n(Cc3ccco3)c3c2CCC3)cc1F`, the AC50 was 15.8 µM [falling, partial curve].

As to `CCn1c(=O)cc(SCC(=O)NCCCN2CCN(c3ccc(F)cc3)CC2)c2ccccc21`, the AC50 was 7.94 µM [falling, partial curve].

For `O=C(Nc1sc2c(c1C(=O)Nc1cccc(Cl)c1)CCCC2)c1cccs1`, the half-maximal activity concentration (AC50) is 7.94 µM [falling, full curve].

`O=C(CSc1ncn(-c2ccccc2)n1)Nc1nc2ccccc2s1`: the AC50 was 15.8 µM [falling, partial curve].

On to `Cc1ccc2c(c1)-c1onc(C(=O)N3CCN(c4cc(Cl)ccc4C)CC3)c1CO2`, for which the AC50 is 5.01 µM [falling, partial curve].

As for `CCOc1ccc(-c2nnc(SCC(=O)Nc3ccc(C)cc3Cl)o2)cc1`, the AC50 was 3.98 µM [rising, partial curve].

As for `O=C(Nc1cc(N2CCOCC2)ncn1)NC1(C(F)(F)F)Oc2ccc(Cl)cc2O1` (configuration not stated), the AC50 was 10 µM [falling, partial curve].

As to `O=C(Nc1ccc(Cl)cn1)c1cc2ccccc2o1`, the AC50 is 6.31 µM [falling, partial curve].

As to `CCN(Cc1ccccc1)C(=O)c1cc2c(=O)[nH]c3ccc(C)cc3c2s1`, the AC50 is 0.158 µM [falling, full curve, poor fit].

On to `Cc1cccc(Cn2c(COc3ccc(Cl)cc3)nc3ccccc32)c1`, for which the AC50 was 20 µM [falling, single point].

`Cc1ccc(CCNC(=O)c2cc3n(n2)CCCN(Cc2ccc(C)cc2)C3=O)cc1`: the AC50 was 6.31 µM [rising, single point].

Take `Cn1c(SCc2nc3ccccc3s2)nnc1-c1ccc2c(c1)OCO2`: the AC50 was 15.8 µM [falling, partial curve].

As to `CCOc1ccc(S(=O)(=O)N(CC(=O)NCCSc2ccc(C)cc2)c2ccccc2)cc1`, the AC50 was 12.6 µM [falling, partial curve].

In the case of `Cc1ccc(NC(=O)N2CCN(c3ccc(Cl)c(Cl)c3)CC2)cc1`, the AC50 was 2.51 µM [falling, full curve].

As for `CCOC(=O)c1ccc(NC(=O)CC2Nc3ccccc3NC2=O)cc1` (configuration not stated), the AC50 was 3.98 µM [falling, partial curve].

Take `O=C(Nc1cc(-c2nc3cc(Cl)ccc3o2)ccc1Cl)c1cc([N+](=O)[O-])ccc1N1CCOCC1`: the AC50 is 6.31 µM [falling, partial curve].

On to `Cn1c(=O)oc2cc(S(=O)(=O)N3CCN(c4cccc(Cl)c4)CC3)ccc21`, for which the AC50 was 3.16 µM [falling, full curve].

As for `Cc1ccc(-c2nnc(Nc3ccc(F)cc3)c3ccccc23)cc1S(=O)(=O)N1CCN(C)CC1`, the AC50 was 15.8 µM [falling, partial curve].

For the compound `CCOc1cccc2c1Oc1nc(-c3ccccc3)nc(SCC(=O)Nc3ccc(F)cc3)c1C2`, the AC50 was 25.1 µM [falling, single point].

On to `COc1ccc(OC)c(CCNC(=O)c2cnn(-c3ccc(C)cc3C)c2C2CCN(C(=O)OC(C)(C)C)CC2)c1`, for which the AC50 was 15.8 µM [falling, partial curve].

Take `Cc1c(C(=O)N2CCC(C)CC2)c(S(=O)(=O)Nc2cccc(C(F)(F)F)c2)c(C)n1C`: the AC50 was 39.8 µM [falling, single point].

In the case of `COc1ccc(CNC(=O)Cn2c(=O)ccc3cc(S(=O)(=O)N4CCCC4)ccc32)cc1`, the AC50 was 0.398 µM [rising, full curve].

As for `COc1ccc2[nH]cc(CCNC(=O)c3cnn(-c4ccc(C)cc4)c3C3CCN(C(=O)OC(C)(C)C)CC3)c2c1`, the AC50 was 15.8 µM [falling, partial curve].
